Data from patent US20060120980A1, “Novel dermatological composition using bio-activating organocatalysts” (priority 2004, published 2006).
Where two headings read alike, the source gives them in different places.

Assay: reduction of Cu++ to Cu+ by redox agent

SMILES	Reduction Cu^++	Reduction Cu^++ (listed as quercetin)	Reduction Cu^++ (listed as thymol)
O=C(O)CCCC[C@@H]1CCSS1 (racemic) [Lipoic Acid]	yes		
O=C(O)/C=C/c1ccc(O)c(O)c1 [Caffeic acid]	yes		
N[C@@H](CS)C(=O)O [Cysteine]	yes		
O=C(O)c1cc(O)c(O)c(O)c1 [Gallic acid]	yes		
N[C@@H](CCC(=O)N[C@@H](CS)C(=O)NCC(=O)O)C(=O)O [Glutathione]	yes		
CC(=O)N[C@@H](CS)C(=O)O [N-acetyl cysteine]	yes		
CCCOC(=O)c1cc(O)c(O)c(O)c1 [Propyl gallate]	yes		
O=c1c(O)c(-c2ccc(O)c(O)c2)oc2cc(O)cc(O)c12 [Quercetin]	no	did not reduce Cu^2+	
Cc1ccc(C(C)C)c(O)c1 [Thymol]	no		did not reduce Cu^2+
O=c1[nH]c(=O)c2[nH]c(=O)[nH]c2[nH]1 [Uric acid]	yes		
